The exact form of at least one protein or probe is not confirmed. Results from cells or extracts need not show a direct contact.
What was measured:
Assay in all cases: EMSA supershift
[1] = target: Sp1 (endogenous) (human) (UniProt P08047); conditions: anti-Sp1; EMSA: 10 mM Tris-HCl pH 7.5, 53 mM NaCl, 1 mM DTT, 0.01% NP40, 5% glycerol, protein inhibitors, RT 30 min; protein in an extract; label: 32P 5' end
[2] = tested on: 3xFLAG-KLF4 (human); conditions: anti-FLAG; EMSA: 10 mM Tris-HCl pH 7.5, 53 mM NaCl, 1 mM DTT, 0.01% NP40, 5% glycerol, protein inhibitors, RT 30 min; protein in an extract; residues 1-479; protein details: 3xFLAG; label: 32P 5' end
[3] = tested on: 3xFLAG-KLF4 K409Q (human); conditions: anti-FLAG; EMSA: 10 mM Tris-HCl pH 7.5, 53 mM NaCl, 1 mM DTT, 0.01% NP40, 5% glycerol, protein inhibitors, RT 30 min; protein in an extract; residues 1-479; protein details: 3xFLAG; label: 32P 5' end

By UniProt entry, the sequences of proteins in these tests, tags left out. Residues count along the entry.
UniProt P08047, 2-785: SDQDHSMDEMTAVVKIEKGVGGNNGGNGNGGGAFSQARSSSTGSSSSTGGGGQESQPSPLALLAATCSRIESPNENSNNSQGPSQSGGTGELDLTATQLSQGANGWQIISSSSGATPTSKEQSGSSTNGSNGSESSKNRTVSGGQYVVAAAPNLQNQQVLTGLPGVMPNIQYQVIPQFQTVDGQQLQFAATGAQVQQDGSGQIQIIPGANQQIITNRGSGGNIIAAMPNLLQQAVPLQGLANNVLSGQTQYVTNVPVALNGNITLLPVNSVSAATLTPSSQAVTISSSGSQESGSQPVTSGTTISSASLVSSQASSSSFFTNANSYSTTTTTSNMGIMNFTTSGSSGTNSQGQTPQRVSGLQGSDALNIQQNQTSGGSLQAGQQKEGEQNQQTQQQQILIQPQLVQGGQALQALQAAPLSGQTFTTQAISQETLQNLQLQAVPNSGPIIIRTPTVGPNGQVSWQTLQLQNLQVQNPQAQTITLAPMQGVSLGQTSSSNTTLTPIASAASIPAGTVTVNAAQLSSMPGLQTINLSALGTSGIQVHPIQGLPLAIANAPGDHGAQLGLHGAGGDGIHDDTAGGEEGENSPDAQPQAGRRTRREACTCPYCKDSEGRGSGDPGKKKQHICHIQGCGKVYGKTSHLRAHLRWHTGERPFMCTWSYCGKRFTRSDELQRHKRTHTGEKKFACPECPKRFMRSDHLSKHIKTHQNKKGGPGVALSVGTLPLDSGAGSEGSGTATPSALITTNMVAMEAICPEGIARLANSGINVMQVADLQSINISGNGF

Measured: binding result

GTGGCCTGGGCGGGACTGGG (double strand) [KLF4 consensus probe]
binds: [1] | [2] | [3]
